Primary screen of a compound library

Source: ChEMBL document CHEMBL3988442, “University of Dundee, Small-Polar-MMV Screening Library” (2021).

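Assay of Toxoplasma gondii numbers, read through their beta-galactosidase reporter with a colour substrate. Tested at 10 µM. The record gives no direction; the compounds picked for IC50 retests had high values, so higher reads as fewer parasites. Of about 67,000 compounds tested this way, about 260 (0.38%) reached 50% or more in at least one test.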

The filed quantity is “Percent Effect” (%). The record does not define 0% and 100%; most values in the screen are far below 50% and negative numbers occur (in some assays of this library far below -100). The compounds are a random part of those screened.

compound,effect
Fc1ccc(C2CCCN2Cc2nc(Cc3ccccc3F)no2)cc1 (centres unmarked),26.56
Cc1cc(C)n(CC2CCCN2C(=O)c2ccc3[nH]c(=O)[nH]c3c2)n1 (centres unmarked),-22.76
CN(C)c1cccc(C(=O)N2CCn3c(nnc3C3CC3)C2)c1,-2.466
CN(C(=O)CN1CCOC(Cn2cccn2)C1)c1nccs1 (centres unmarked),1.335
Cn1ccnc1CNc1c(F)cccc1-n1cccn1,-19.89
c1ccc(OCCNc2ncnc3sc4c(c23)CCNC4)cc1,5.625
Cn1ccnc1CC1CCCN(C(=O)NCCOc2cccnc2)C1 (centres unmarked),4.058
Cc1nc(C2(O)CCCNCC2)sc1CCOc1ccc(F)cc1.Cl (centres unmarked),11.11
COCCc1noc(-c2ccc(-c3cc[nH]n3)nc2)n1,2.681
Cc1cccc(C(C(=O)NCc2cc(C)[nH]n2)N(C)C)c1 (centres unmarked),27.6
O=C(O)c1ccccc1CN1CCOC(CCc2ccncn2)C1 (centres unmarked),1.516
Cc1nc(C(=O)N2CC(C)Sc3ccccc32)cs1 (centres unmarked),1.2
O=C(O)C(F)(F)F.[H][C@@]12CCN(CC3CC3)[C@@]1([H])CCN2C(=O)c1cccc(Cl)c1,-3.592
CC(C)n1ccnc1C1CCN(C(=O)N2CCCC2)CC1,-32.68
CC(C)c1nnc(CN(C)Cc2ccccc2-c2ccccc2)o1,7.6
CN(Cc1nc(C2CC2)no1)C1CCS(=O)(=O)C1 (centres unmarked),-5.044
Cc1nccc(C(=O)N2CCCC2c2noc(C(C)C)n2)n1 (centres unmarked),3.369
Cc1c[nH]c(CN2CCCCC2CCn2cccn2)c(C)c1=O (centres unmarked),13.48
CCC(C)N(Cc1cccnc1)C(=O)c1ncccc1O (centres unmarked),-16.17
Cc1cc2c(=O)n3c(nc2s1)CCN(C(=O)c1cn(C)nc1C)CC3,2.036
Nc1c(Cl)cnn1C1CCN(Cc2ccccc2)C1 (centres unmarked),-7.491
COCCN1CCC(CN(Cc2ccncc2)C2CCCCC2)CC1,8.776
[H][C@@]12C[C@H](C(=O)N3CCCC3)[C@@]([H])(CN(C(=O)Nc3ccccc3)C1)O2,-4.426
CC(=O)Nc1nc(C(=O)NC(C)c2ccc(C#N)cc2)cs1 (centres unmarked),3.011
Cc1ccc(OCC(O)CN2CCC(Cn3cccn3)CC2)cc1 (centres unmarked),-1.446
Nc1nnc(CCCNC(=O)c2ccc(C3CCCNC3)cc2)s1 (centres unmarked),3.121
NC(=O)c1nnn(-c2ccc(Cl)cc2)n1,-11.13
COc1ccc(NC(=O)c2ccco2)c(N2CCN(C(C)=O)CC2)n1,0.5895
[H][C@]12CN(CC3CC3)C(=O)[C@@]1([H])CN(S(=O)(=O)C1CC1)C2,5.119
COCc1cccc(NC(=O)NCc2ncc(C)c(OC)c2C)c1,-17.27
Cc1cc(Nc2ccc3c(c2)CC(=O)N3)nc(C2CC2)n1,-2.617
[H][C@@]12OCCN(S(=O)(=O)c3cn(C)cn3)[C@@]1([H])CC[C@H]2OC,10.89
O=C(NCc1nnc2n1CCC2)c1ccc(Br)s1,-7.47
CN(Cc1cnn(C)c1)C(=O)c1cc(C(F)(F)F)n(C)n1,-9.503
O=C(C1CCCOC1)N1CCc2ccc(F)cc21 (centres unmarked),0.8974
COc1ccc(Cl)cc1CC(=O)N1CCN(CC(C)O)CC1 (centres unmarked),-7.045
COCCC(=O)N1CCC2(CC1)CC(c1ccccc1)CN(C1CC1)C2 (centres unmarked),8.021
COc1cccc2c1OCC(C(=O)N1CCN(C3CCCC3)C(=O)C1)C2 (centres unmarked),-18
CC(C)N(C)C(=O)C1=NOC2(CCN(C(=O)c3ccc(Cl)cc3)C2)C1 (centres unmarked),20.2
N#Cc1ccsc1N1CCC(Sc2ncc[nH]2)C1=O (centres unmarked),8.996
CCS(=O)(=O)N1CCC(c2nn(CCN(C)C)c3ncccc23)C1 (centres unmarked),-40.25
CSCc1noc(Cn2ncn3cccc3c2=O)n1,-10.7
CSC(C)(C)CNC(=O)NC1CCN(CC2CC2)C1 (centres unmarked),10.23
Cc1nc(CNCC(C)c2nc3ccccc3o2)cs1 (centres unmarked),-4.432
Cc1cc(C)n(CC2CN(CC(=O)Nc3cccnc3)CCO2)n1 (centres unmarked),0.8238
CN(C)C(=O)N1CCN(C(=O)c2ccn3ccnc3c2)CC1,-2.813

The last 3 entries again:

- Cc1nc(CNCC(C)c2nc3ccccc3o2)cs1 (centres unmarked) : -4.432%
- Cc1cc(C)n(CC2CN(CC(=O)Nc3cccnc3)CCO2)n1 (centres unmarked) : 0.8238%
- CN(C)C(=O)N1CCN(C(=O)c2ccn3ccnc3c2)CC1 : -2.813%